From PMC5524641 come the findings set out here.

Protein sequences, listed by entry. Tags and fused reporters are not part of them. Residues count along the entry.
p62ZZ-GST (93-residue fragment, residues 83–175) (Q13501, residues 83-175): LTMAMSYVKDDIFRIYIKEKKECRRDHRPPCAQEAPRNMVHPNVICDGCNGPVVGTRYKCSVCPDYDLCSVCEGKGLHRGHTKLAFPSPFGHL

Results are given in words; binding and its absence hold for the method and conditions named. In cells and extracts the contact can be indirect. Some binding calls cover weakened binding; strength is not graded here.

The target in assay [1] is L-peptide (L-I-F-S-T-I-E-G-R-T-Y-K-biotin). Description: pull-down; […]) in 0.05% Tween 20, 10% glycerol, 0.2 M KCl, 20 mM HEPES pH 7.9; […]; only the target purified.
Assay [2] concerns the target Y-peptide (Y-I-F-S-T-I-E-G-R-T-Y-K-biotin). The description is as above.
The target in assay [3] is L-peptide (L-I-F-S-T-I-E-G-R-T-Y-K-biotin). Briefly: pull-down; X-peptide pulldown assay using 93-residue p62ZZ-GST.
In assay [4] the target is Y-peptide (Y-I-F-S-T-I-E-G-R-T-Y-K-biotin). The assay is described as above.

For “endogenous p62 (HEK293 cells) (from UniProt Q13501 1-440)”, the values for the binding entry in assay [1] and in assay [2] were “no binding” and “binds”, respectively.
“p62ZZ-GST (93-residue fragment, residues 83–175) (from UniProt Q13501 83-175) (domain or fragment)”: the figures for the binding entry in assay [3] and in assay [4] were “no binding” and “binds”, respectively.
